Test results published in PMC9233679.
Results are given in words; binding and its absence hold for the method and conditions named. In cells and extracts the contact can be indirect. Here binding means that the protein was enriched with, or labelled near, the bait; the list need not be complete.

Sequences of proteins named here, by UniProt entry; tags and fusion partners are left off.
UniProt Q8TEK3: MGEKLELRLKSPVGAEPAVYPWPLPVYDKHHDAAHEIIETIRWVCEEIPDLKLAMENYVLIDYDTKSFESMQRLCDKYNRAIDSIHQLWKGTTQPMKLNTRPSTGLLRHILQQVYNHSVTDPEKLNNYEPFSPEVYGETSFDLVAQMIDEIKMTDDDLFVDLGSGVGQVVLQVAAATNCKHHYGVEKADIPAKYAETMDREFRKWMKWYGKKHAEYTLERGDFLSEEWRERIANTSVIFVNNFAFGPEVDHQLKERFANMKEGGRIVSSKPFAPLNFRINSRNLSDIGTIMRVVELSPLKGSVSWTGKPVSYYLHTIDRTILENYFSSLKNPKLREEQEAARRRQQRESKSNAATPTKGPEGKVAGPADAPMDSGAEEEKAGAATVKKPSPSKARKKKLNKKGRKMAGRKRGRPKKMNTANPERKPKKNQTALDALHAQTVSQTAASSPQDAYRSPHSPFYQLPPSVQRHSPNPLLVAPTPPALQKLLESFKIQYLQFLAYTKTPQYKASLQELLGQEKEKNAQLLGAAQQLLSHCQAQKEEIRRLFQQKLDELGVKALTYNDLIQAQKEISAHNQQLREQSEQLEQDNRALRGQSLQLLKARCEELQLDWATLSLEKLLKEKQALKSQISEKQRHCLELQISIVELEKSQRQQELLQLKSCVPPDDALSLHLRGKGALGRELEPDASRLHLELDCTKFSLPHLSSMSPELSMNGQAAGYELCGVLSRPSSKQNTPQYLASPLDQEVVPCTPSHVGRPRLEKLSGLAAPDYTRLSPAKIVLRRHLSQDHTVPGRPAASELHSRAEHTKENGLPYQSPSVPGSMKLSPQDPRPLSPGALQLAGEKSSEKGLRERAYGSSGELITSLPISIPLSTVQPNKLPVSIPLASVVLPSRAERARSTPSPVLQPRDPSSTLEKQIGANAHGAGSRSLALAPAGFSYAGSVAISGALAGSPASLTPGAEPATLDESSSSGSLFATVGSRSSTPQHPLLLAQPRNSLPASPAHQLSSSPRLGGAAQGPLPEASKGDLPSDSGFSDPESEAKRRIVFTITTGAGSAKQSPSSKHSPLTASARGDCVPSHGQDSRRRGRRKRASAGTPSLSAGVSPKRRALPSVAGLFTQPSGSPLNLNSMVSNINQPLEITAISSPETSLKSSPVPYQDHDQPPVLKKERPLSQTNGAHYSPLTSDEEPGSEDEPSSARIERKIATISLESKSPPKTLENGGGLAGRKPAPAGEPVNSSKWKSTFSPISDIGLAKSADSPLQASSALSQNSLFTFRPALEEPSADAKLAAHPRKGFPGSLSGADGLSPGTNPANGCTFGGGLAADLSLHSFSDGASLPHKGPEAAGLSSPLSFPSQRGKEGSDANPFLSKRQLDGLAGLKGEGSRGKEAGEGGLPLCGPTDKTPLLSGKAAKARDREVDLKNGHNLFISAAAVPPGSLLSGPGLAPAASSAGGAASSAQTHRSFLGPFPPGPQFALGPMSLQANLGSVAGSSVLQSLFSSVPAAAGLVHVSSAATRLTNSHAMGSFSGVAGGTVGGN
UniProt Q9H9B1: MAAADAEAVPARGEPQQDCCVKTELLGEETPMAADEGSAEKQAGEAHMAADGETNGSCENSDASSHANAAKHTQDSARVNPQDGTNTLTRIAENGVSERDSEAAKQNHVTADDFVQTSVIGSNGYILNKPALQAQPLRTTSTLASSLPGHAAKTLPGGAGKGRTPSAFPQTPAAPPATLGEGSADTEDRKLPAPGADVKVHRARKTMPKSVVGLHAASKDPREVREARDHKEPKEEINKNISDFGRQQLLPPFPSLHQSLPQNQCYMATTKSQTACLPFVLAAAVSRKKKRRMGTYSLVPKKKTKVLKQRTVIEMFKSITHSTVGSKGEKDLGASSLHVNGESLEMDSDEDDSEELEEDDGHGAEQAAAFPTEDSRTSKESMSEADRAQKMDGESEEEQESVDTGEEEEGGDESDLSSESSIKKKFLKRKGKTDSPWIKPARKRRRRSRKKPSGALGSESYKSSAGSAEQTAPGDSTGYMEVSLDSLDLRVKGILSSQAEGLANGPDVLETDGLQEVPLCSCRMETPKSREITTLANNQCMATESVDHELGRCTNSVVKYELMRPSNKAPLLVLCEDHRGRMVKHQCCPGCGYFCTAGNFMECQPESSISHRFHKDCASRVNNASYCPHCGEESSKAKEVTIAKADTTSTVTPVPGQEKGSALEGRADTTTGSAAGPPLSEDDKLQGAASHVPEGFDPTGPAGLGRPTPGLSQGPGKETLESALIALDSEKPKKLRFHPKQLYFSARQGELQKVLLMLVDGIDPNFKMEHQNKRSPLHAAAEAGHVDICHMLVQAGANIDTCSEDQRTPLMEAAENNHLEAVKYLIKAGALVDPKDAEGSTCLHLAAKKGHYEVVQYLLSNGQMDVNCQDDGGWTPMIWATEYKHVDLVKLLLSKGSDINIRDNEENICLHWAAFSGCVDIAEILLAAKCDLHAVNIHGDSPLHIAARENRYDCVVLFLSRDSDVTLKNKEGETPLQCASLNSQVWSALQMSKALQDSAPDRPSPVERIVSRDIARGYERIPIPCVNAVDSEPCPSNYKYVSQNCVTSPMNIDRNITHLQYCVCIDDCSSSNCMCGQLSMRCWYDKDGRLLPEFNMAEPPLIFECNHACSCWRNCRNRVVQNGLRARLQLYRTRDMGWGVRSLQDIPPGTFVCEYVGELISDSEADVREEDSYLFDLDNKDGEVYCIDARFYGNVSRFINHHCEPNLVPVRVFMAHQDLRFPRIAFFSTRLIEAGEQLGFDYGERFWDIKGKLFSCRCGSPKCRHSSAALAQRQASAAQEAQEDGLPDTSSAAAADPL
UniProt Q92830: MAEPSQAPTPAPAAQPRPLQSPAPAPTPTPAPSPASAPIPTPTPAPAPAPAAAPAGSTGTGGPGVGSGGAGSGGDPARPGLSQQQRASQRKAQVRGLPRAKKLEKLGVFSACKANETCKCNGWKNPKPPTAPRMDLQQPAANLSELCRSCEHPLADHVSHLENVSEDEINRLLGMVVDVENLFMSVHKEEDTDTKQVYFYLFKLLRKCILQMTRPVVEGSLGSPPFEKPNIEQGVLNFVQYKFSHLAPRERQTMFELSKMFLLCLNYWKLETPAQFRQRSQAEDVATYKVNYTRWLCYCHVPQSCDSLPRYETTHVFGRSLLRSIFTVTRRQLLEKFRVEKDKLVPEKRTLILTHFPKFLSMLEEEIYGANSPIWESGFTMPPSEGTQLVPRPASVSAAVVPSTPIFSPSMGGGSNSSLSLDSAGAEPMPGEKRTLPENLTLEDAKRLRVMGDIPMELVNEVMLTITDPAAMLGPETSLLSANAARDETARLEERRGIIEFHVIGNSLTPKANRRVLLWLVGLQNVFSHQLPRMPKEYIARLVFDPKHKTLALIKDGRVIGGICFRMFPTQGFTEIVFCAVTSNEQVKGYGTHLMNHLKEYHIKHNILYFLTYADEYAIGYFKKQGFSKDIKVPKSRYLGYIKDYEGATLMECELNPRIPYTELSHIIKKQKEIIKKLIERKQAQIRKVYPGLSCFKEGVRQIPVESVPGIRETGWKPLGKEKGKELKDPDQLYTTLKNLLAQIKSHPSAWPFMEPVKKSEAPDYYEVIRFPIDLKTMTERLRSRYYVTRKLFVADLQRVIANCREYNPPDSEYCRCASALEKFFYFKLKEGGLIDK
UniProt Q92993: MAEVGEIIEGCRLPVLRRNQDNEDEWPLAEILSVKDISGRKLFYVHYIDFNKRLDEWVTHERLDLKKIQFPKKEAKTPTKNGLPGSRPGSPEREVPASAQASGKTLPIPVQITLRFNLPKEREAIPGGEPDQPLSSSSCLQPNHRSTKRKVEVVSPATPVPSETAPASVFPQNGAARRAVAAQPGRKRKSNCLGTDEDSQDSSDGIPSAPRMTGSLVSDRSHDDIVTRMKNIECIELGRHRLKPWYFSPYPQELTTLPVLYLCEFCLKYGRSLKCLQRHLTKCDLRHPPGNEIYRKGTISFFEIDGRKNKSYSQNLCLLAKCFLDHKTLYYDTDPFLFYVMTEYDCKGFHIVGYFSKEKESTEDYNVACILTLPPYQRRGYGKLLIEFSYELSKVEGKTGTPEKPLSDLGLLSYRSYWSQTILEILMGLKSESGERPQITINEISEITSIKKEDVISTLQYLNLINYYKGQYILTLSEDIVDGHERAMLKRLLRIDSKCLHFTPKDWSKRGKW

T1: S100A11 (human (endogenous in BxPC3 and SW1990)) (UniProt P31949)
T1 sequence: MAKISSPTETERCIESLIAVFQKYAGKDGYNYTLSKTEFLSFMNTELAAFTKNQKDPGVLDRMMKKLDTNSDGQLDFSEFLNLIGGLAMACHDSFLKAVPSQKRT

B1: SMYD3 (enzyme, UniProt Q9H7B4 1-428)
chain: MEPLKVEKFATAKRGNGLRAVTPLRPGELLFRSDPLAYTVCKGSRGVVCDRCLLGKEKLMRCSQCRVAKYCSAKCQKKAWPDHKRECKCLKSCKPRYPPDSVRLLGRVVFKLMDGAPSESEKLYSFYDLESNINKLTEDKKEGLRQLVMTFQHFMREEIQDASQLPPAFDLFEAFAKVICNSFTICNAEMQEVGVGLYPSISLLNHSCDPNCSIVFNGPHLLLRAVRDIEVGEELTICYLDMLMTSEERRKQLRDQYCFECDCFRCQTQDKDADMLTGDEQVWKEVQESLKKIEELKAHWKWEQVLAMCQAIISSNSERLPDINIYQLKVLDCAMDACINLGLLEEALFYGTRTMEPYRIFFPGSHPVRGVQVMKVGKLQLHQGMFPQAMKNLRLAFDIMRVTHGREHSLIEDLILLLEECDANIRAS
B2: SETD7 (enzyme, UniProt Q8WTS6 1-366)
chain: MDSDDEMVEEAVEGHLDDDGLPHGFCTVTYSSTDRFEGNFVHGEKNGRGKFFFFDGSTLEGYYVDDALQGQGVYTYEDGGVLQGTYVDGELNGPAQEYDTDGRLIFKGQYKDNIRHGVCWIYYPDGGSLVGEVNEDGEMTGEKIAYVYPDERTALYGKFIDGEMIEGKLATLMSTEEGRPHFELMPGNSVYHFDKSTSSCISTNALLPDPYESERVYVAESLISSAGEGLFSKVAVGPNTVMSFYNGVRITHQEVDSRDWALNGNTLSLDEETVIDVPEPYNHVSKYCASLGHKANHSFTPNCIYDMFVHPRFGPIKCIRTLRAVEADEELTVAYGYDHSPPGKSGPEAPEWYQVELKAFQATQQK

The molecules below were run against T1, S100A11 (human (endogenous in BxPC3 and SW1990)) (assay: affinity purification with mass spectrometry; Co-IP of S100A11 followed by MS to screen interactive partners; cell line not stated).

Q: How did the binding turn out when “DOT1L (from UniProt Q8TEK3 1-1537) (enzyme)” was run?
A: binds

Q: Which binding does the source give for “EHMT1 (from UniProt Q9H9B1 1-1298) (enzyme)” here?
A: binds

Q: For “KAT2A (from UniProt Q92830 1-837) (enzyme)”, which binding is on record?
A: binds

Q: Which binding does the source give for “KAT5 (from UniProt Q92993 1-513) (enzyme)” here?
A: binds

Q: Which binding does the source give for B1 here?
A: binds

Q: For B2, which binding is on record?
A: binds
